Results are given in words; binding and its absence hold for the method and conditions named. For part of these data: Binding seen in cells or lysates may run through a third protein. Some binding calls cover weakened binding; strength is not graded here.

The chains behind the UniProt entries cited, without tags or fusion partners.
UniProt Q7Z434: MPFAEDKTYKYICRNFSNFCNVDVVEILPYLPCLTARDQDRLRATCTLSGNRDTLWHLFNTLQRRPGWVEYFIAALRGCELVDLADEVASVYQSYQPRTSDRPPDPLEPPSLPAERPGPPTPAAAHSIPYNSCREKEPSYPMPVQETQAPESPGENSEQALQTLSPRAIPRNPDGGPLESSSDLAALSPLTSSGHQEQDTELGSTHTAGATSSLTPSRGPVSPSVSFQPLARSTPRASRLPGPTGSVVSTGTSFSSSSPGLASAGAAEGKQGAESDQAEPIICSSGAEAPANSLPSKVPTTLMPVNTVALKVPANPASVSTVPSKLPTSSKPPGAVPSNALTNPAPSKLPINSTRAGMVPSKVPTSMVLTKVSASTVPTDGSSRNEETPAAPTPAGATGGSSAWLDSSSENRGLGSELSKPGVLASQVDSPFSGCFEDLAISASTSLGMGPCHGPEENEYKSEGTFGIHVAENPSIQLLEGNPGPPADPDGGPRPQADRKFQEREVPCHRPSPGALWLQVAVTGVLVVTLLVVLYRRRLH
UniProt P46379: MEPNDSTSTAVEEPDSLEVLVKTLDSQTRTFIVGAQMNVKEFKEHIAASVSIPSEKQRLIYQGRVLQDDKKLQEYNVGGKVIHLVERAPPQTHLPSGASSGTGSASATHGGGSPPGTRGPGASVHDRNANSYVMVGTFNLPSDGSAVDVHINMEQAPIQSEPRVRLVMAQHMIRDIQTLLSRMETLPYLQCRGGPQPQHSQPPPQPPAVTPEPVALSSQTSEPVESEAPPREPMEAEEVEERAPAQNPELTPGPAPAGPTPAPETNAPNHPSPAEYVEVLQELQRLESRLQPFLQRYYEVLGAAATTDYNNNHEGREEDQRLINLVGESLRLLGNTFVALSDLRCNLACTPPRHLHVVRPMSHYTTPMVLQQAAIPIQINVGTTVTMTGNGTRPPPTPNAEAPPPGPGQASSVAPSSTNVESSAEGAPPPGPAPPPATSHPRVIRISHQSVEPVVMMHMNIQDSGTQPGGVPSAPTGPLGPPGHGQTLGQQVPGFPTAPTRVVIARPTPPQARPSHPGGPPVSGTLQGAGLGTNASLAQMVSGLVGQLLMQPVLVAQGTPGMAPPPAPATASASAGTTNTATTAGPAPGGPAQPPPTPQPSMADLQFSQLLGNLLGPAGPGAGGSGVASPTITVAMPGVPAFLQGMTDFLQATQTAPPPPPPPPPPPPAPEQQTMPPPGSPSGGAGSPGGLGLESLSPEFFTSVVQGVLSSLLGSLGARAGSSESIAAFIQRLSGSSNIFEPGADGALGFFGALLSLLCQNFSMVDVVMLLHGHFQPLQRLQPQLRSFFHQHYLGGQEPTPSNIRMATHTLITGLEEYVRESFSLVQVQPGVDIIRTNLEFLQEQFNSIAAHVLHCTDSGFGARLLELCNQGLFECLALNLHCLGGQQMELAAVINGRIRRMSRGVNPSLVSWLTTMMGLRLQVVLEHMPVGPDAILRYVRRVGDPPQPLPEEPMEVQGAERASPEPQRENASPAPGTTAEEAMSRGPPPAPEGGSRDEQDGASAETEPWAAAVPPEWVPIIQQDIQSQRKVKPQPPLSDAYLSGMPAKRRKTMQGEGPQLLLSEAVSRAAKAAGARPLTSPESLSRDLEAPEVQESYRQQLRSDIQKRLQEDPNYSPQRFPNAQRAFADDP

This is an account of results in paper PMC9420869.

Assay [1] has as its target endogenous VISA (human cells) (human (endogenous in HEK 293 and HeLa)) (UniProt Q7Z434). The experiment in a line: co-IP; endogenous co-immunoprecipitation from HEK 293 cells infected with SeV (MOI = 1) for indicated times or left untreated.
The target in assay [2] is VISA expressed from a mammalian expression plasmid (UniProt Q7Z434). The experiment in a line: co-IP; HEK 293 cells transfected with the indicated plasmids, infected with SeV (MOI = 1) for 12 h or left untreated; co-immunoprecipitation and Western blot.
For assay [3], the target named is T1, endogenous VISA (mouse cells) (mouse (endogenous in NIH3T3 and BMDMs)), Q8VCF0.
T1 chain: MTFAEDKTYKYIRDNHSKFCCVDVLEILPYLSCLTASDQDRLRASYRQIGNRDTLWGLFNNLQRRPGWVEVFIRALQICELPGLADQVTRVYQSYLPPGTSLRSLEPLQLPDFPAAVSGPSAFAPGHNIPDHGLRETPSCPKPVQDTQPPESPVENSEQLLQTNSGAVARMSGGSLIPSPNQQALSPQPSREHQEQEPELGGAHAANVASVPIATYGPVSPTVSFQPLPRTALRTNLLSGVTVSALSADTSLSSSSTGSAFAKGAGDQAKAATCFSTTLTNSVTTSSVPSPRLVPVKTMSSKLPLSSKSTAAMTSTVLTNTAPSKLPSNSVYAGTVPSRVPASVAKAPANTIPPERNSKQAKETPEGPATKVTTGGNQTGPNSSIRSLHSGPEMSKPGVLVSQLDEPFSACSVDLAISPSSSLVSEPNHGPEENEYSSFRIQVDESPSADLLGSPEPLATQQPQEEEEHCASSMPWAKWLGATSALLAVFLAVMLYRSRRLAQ
The experiment in a line: SDD-AGE; semi-denaturing detergent agarose gel electrophoresis of native lysates (1% agarose, SDS, 4°C) and immunoblot for VISA; cells untreated or SeV (MOI = 1) for 8 h; vector or Flag-BAG6 (HEK 293), wild type or BAG6-deficient (NIH3T3, BMDMs). The following applies: remark: other sources report otherwise.

As for “endogenous BAG6 (from UniProt P46379 1-1132)”, the binding result in assay [1] was “binds”.
Consider “human BAG6 expressed from pRK5-Flag/HA/Myc-hBAG6 (from UniProt P46379 1-1132)”, for which the binding entry in assay [2] was “binds”.

B1: endogenous VISA (mouse cells), Q8VCF0 1-503 (protein)
chain: MTFAEDKTYKYIRDNHSKFCCVDVLEILPYLSCLTASDQDRLRASYRQIGNRDTLWGLFNNLQRRPGWVEVFIRALQICELPGLADQVTRVYQSYLPPGTSLRSLEPLQLPDFPAAVSGPSAFAPGHNIPDHGLRETPSCPKPVQDTQPPESPVENSEQLLQTNSGAVARMSGGSLIPSPNQQALSPQPSREHQEQEPELGGAHAANVASVPIATYGPVSPTVSFQPLPRTALRTNLLSGVTVSALSADTSLSSSSTGSAFAKGAGDQAKAATCFSTTLTNSVTTSSVPSPRLVPVKTMSSKLPLSSKSTAAMTSTVLTNTAPSKLPSNSVYAGTVPSRVPASVAKAPANTIPPERNSKQAKETPEGPATKVTTGGNQTGPNSSIRSLHSGPEMSKPGVLVSQLDEPFSACSVDLAISPSSSLVSEPNHGPEENEYSSFRIQVDESPSADLLGSPEPLATQQPQEEEEHCASSMPWAKWLGATSALLAVFLAVMLYRSRRLAQ
As to B1, the binding entry in assay [3] is “binds”.
